# Data taken from the supplement of paper PMC8728848.
# The list shows a part of the results.
# B1: M6PR (Bos taurus), P11456 (protein)
# chain: MMSPLHSSWRTGLLLLLLFSVAVRESWQTEEKTCDLVGEKGKESEKELALLKRLTPLFNKSFESTVGQSPDMYSYVFRVCREAGNHSSGAGLVQINKSNGKETVVGRFNETQIFNGSNWIMLIYKGGDEYDNHCGREQRRAVVMISCNRHTLADNFN
# How the values were obtained:
# Test in all cases: glycan array binding signal (z-score within array); higher = stronger binding
# Details in all cases: glycan notation: IUPAC condensed, linker removed
# Gal(b1-3)GalNAc = molecular target: Gal(b1-3)GalNAc
# Method in brief: (§1)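 The binding signal is a Z-score computed within each array and averaged over linkers. Arrays of the same protein sequence at different concentrations or buffers were also averaged together. Data originate from 3228 arrays in the Consortium for Functional Glycomics database, kept only where the protein sequence was available.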
# [1] = molecular target: Gal(b1-3)GalNAc(b1-3)Gal(a1-4)Gal(b1-4)Glc
# Method in brief: as §1
# [2] = molecular target: Gal(b1-3)GalNAc(b1-4)Gal(b1-4)Glc
# Method in brief: as §1
# [3] = molecular target: Gal(b1-3)GalNAc(b1-4)[Neu5Ac(a2-3)]Gal(b1-4)Glc
# Method in brief: as §1
# Gal(b1-3)GlcNAc = molecular target: Gal(b1-3)GlcNAc
# Method in brief: as §1
# [4] = molecular target: Gal(b1-3)GlcNAc(b1-3)Gal(b1-3)GlcNAc
# Method in brief: as §1
# [5] = molecular target: Gal(b1-3)GlcNAc(b1-3)Gal(b1-4)Glc
# Method in brief: as §1
# [6] = molecular target: Gal(b1-3)GlcNAc(b1-3)Gal(b1-4)GlcNAc
# Method in brief: as §1
# [7] = molecular target: Gal(b1-3)[Fuc(a1-4)]GlcNAc
# Method in brief: as §1
# [8] = molecular target: Gal(b1-3)[Fuc(a1-4)]GlcNAc(b1-3)Gal(b1-3)[Fuc(a1-4)]GlcNAc
# Method in brief: as §1
# [9] = molecular target: Gal(b1-3)[Fuc(a1-4)]GlcNAc(b1-3)Gal(b1-4)GlcNAc
# Method in brief: as §1
# [10] = molecular target: Gal(b1-3)[Fuc(a1-4)]GlcNAc(b1-3)Gal(b1-4)[Fuc(a1-3)]GlcNAc
# Method in brief: as §1
# [11] = molecular target: Gal(b1-3)[GlcNAc(b1-6)]GalNAc
# Method in brief: as §1
# [12] = molecular target: Gal(b1-3)[Neu5Ac(a2-6)]GalNAc
# Method in brief: as §1
# [13] = molecular target: Gal(b1-3)[Neu5Ac(a2-6)]GlcNAc(b1-6)Gal(b1-4)Glc
# Method in brief: as §1
# [14] = molecular target: Gal(b1-3)[Neu5Ac(b2-6)]GalNAc
# Method in brief: as §1
# [15] = molecular target: Gal(b1-4)GalNAc(a1-3)[Fuc(a1-2)]Gal(b1-4)GlcNAc
# Method in brief: as §1
# [16] = molecular target: Gal(b1-4)GalNAc(b1-3)[Fuc(a1-2)]Gal(b1-4)GlcNAc
# Method in brief: as §1
# Gal(b1-4)Glc = molecular target: Gal(b1-4)Glc
# Method in brief: as §1
# Gal(b1-4)Glc6S = molecular target: Gal(b1-4)Glc6S
# Method in brief: as §1
# Gal(b1-4)GlcNAc = molecular target: Gal(b1-4)GlcNAc
# Method in brief: as §1
# [17] = molecular target: Gal(b1-4)GlcNAc(b1-2)Man(a1-3)[Gal(b1-4)GlcNAc(b1-2)Man(a1-6)]Man(b1-4)GlcNAc(b1-4)GlcNAc
# Method in brief: as §1
# [18] = molecular target: Gal(b1-4)GlcNAc(b1-3)Gal(b1-3)GlcNAc
# Method in brief: as §1
# [19] = molecular target: Gal(b1-4)GlcNAc(b1-3)Gal(b1-4)Glc
# Method in brief: as §1
# [20] = molecular target: Gal(b1-4)GlcNAc(b1-3)Gal(b1-4)GlcNAc
# Method in brief: as §1
# [21] = molecular target: Gal(b1-4)GlcNAc(b1-3)Gal(b1-4)GlcNAc(b1-3)Gal(b1-4)GlcNAc
# Method in brief: as §1
# [22] = molecular target: Gal(b1-4)GlcNAc(b1-3)Gal(b1-4)[Fuc(a1-3)]GlcNAc(b1-3)Gal(b1-4)[Fuc(a1-3)]GlcNAc
# Method in brief: as §1
# [23] = molecular target: Gal(b1-4)GlcNAc(b1-3)GalNAc
# Method in brief: as §1
# [24] = molecular target: Gal(b1-4)GlcNAc(b1-3)[Gal(b1-4)GlcNAc(b1-6)]GalNAc
# Method in brief: as §1
# [25] = molecular target: Gal(b1-4)GlcNAc(b1-6)Gal(b1-4)GlcNAc(b1-6)GalNAc
# Method in brief: as §1
# [26] = molecular target: Gal(b1-4)GlcNAc(b1-6)GalNAc
# Method in brief: as §1
# [27] = molecular target: Gal(b1-4)GlcNAc(b1-6)[Gal(b1-3)]GalNAc
# Method in brief: as §1
# Gal3S(b1-3)GalNAc = molecular target: Gal3S(b1-3)GalNAc
# Method in brief: as §1
# Gal3S(b1-3)GlcNAc = molecular target: Gal3S(b1-3)GlcNAc
# Method in brief: as §1
# [28] = molecular target: Gal3S(b1-3)[Fuc(a1-4)]GlcNAc
# Method in brief: as §1
# Gal3S(b1-4)Glc = molecular target: Gal3S(b1-4)Glc
# Method in brief: as §1
# Gal3S(b1-4)Glc6S = molecular target: Gal3S(b1-4)Glc6S
# Method in brief: as §1
# Gal3S(b1-4)GlcNAc = molecular target: Gal3S(b1-4)GlcNAc
# Method in brief: as §1
# Gal3S(b1-4)GlcNAc6S = molecular target: Gal3S(b1-4)GlcNAc6S
# Method in brief: as §1
# [29] = molecular target: Gal3S(b1-4)[Fuc(a1-3)]Glc
# Method in brief: as §1
# Gal3S6S(b1-4)GlcNAc = molecular target: Gal3S6S(b1-4)GlcNAc
# Method in brief: as §1
# Gal3S6S(b1-4)GlcNAc6S = molecular target: Gal3S6S(b1-4)GlcNAc6S
# Method in brief: as §1
# Gal4S(b1-4)GlcNAc = molecular target: Gal4S(b1-4)GlcNAc
# Method in brief: as §1
# Gal4S6S(b1-4)GlcNAc = molecular target: Gal4S6S(b1-4)GlcNAc
# Method in brief: as §1
# Gal6S(b1-4)Glc = molecular target: Gal6S(b1-4)Glc
# Method in brief: as §1
# Gal6S(b1-4)Glc6S = molecular target: Gal6S(b1-4)Glc6S
# Method in brief: as §1
# Gal6S(b1-4)GlcNAc = molecular target: Gal6S(b1-4)GlcNAc
# Method in brief: as §1
# GalNAc(a1-3)Gal = molecular target: GalNAc(a1-3)Gal
# Method in brief: as §1
# GalNAc(a1-3)GalNAc = molecular target: GalNAc(a1-3)GalNAc
# Method in brief: as §1
# [30] = molecular target: GalNAc(b1-3)Gal(a1-4)Gal(b1-4)GlcNAc
# Method in brief: as §1
# GalNAc(b1-3)GalNAc = molecular target: GalNAc(b1-3)GalNAc
# Method in brief: as §1
# GalNAc(b1-4)GlcNAc = molecular target: GalNAc(b1-4)GlcNAc
# Method in brief: as §1
# Glc(a1-4)Glc = molecular target: Glc(a1-4)Glc
# Method in brief: as §1
# Glc(a1-6)Glc(a1-6)Glc = molecular target: Glc(a1-6)Glc(a1-6)Glc
# Method in brief: as §1
# Glc(b1-4)Glc = molecular target: Glc(b1-4)Glc
# Method in brief: as §1
# Glc(b1-6)Glc = molecular target: Glc(b1-6)Glc
# Method in brief: as §1
# GlcA(b1-3)Gal = molecular target: GlcA(b1-3)Gal
# Method in brief: as §1
# GlcA(b1-6)Gal = molecular target: GlcA(b1-6)Gal
# Method in brief: as §1
# [31] = molecular target: GlcNAc(a1-3)Gal(b1-4)GlcNAc
# Method in brief: as §1
# [32] = molecular target: GlcNAc(a1-6)Gal(b1-4)GlcNAc
# Method in brief: as §1
binder,measurement,setting,value
B1,glycan array binding signal (z-score),Gal(b1-3)GalNAc,-0.163
same,glycan array binding signal (z-score),[1],-0.573
same,glycan array binding signal (z-score),[2],-0.067
same,glycan array binding signal (z-score),[3],-0.314
same,glycan array binding signal (z-score),Gal(b1-3)GlcNAc,0.463
same,glycan array binding signal (z-score),[4],-0.212
same,glycan array binding signal (z-score),[5],-0.227
same,glycan array binding signal (z-score),[6],-0.584
same,glycan array binding signal (z-score),[7],-0.132
same,glycan array binding signal (z-score),[8],0.728
same,glycan array binding signal (z-score),[9],-0.187
same,glycan array binding signal (z-score),[10],0.169
same,glycan array binding signal (z-score),[11],-0.247
same,glycan array binding signal (z-score),[12],-0.385
same,glycan array binding signal (z-score),[13],-0.723
same,glycan array binding signal (z-score),[14],-0.596
same,glycan array binding signal (z-score),[15],-0.164
same,glycan array binding signal (z-score),[16],0.157
same,glycan array binding signal (z-score),Gal(b1-4)Glc,-0.642
same,glycan array binding signal (z-score),Gal(b1-4)Glc6S,-0.193
same,glycan array binding signal (z-score),Gal(b1-4)GlcNAc,-0.185
same,glycan array binding signal (z-score),[17],-0.276
same,glycan array binding signal (z-score),[18],-0.435
same,glycan array binding signal (z-score),[19],-0.366
same,glycan array binding signal (z-score),[20],0.2
same,glycan array binding signal (z-score),[21],-0.586
same,glycan array binding signal (z-score),[22],-0.396
same,glycan array binding signal (z-score),[23],-0.399
same,glycan array binding signal (z-score),[24],-0.069
same,glycan array binding signal (z-score),[25],-0.673
same,glycan array binding signal (z-score),[26],-0.397
same,glycan array binding signal (z-score),[27],-0.201
same,glycan array binding signal (z-score),Gal3S(b1-3)GalNAc,-0.095
same,glycan array binding signal (z-score),Gal3S(b1-3)GlcNAc,0.421
same,glycan array binding signal (z-score),[28],0.285
same,glycan array binding signal (z-score),Gal3S(b1-4)Glc,-0.177
same,glycan array binding signal (z-score),Gal3S(b1-4)Glc6S,0.01
same,glycan array binding signal (z-score),Gal3S(b1-4)GlcNAc,0.023
same,glycan array binding signal (z-score),Gal3S(b1-4)GlcNAc6S,-0.1
same,glycan array binding signal (z-score),[29],-0.883
same,glycan array binding signal (z-score),Gal3S6S(b1-4)GlcNAc,0.638
same,glycan array binding signal (z-score),Gal3S6S(b1-4)GlcNAc6S,0.585
same,glycan array binding signal (z-score),Gal4S(b1-4)GlcNAc,0.501
same,glycan array binding signal (z-score),Gal4S6S(b1-4)GlcNAc,-0.147
same,glycan array binding signal (z-score),Gal6S(b1-4)Glc,-0.162
same,glycan array binding signal (z-score),Gal6S(b1-4)Glc6S,-0.33
same,glycan array binding signal (z-score),Gal6S(b1-4)GlcNAc,-0.069
same,glycan array binding signal (z-score),GalNAc(a1-3)Gal,1.42
same,glycan array binding signal (z-score),GalNAc(a1-3)GalNAc,0.045
same,glycan array binding signal (z-score),[30],0.285
same,glycan array binding signal (z-score),GalNAc(b1-3)GalNAc,-0.259
same,glycan array binding signal (z-score),GalNAc(b1-4)GlcNAc,0.215
same,glycan array binding signal (z-score),Glc(a1-4)Glc,-0.41
same,glycan array binding signal (z-score),Glc(a1-6)Glc(a1-6)Glc,-0.78
same,glycan array binding signal (z-score),Glc(b1-4)Glc,-0.664
same,glycan array binding signal (z-score),Glc(b1-6)Glc,-0.565
same,glycan array binding signal (z-score),GlcA(b1-3)Gal,0.773
same,glycan array binding signal (z-score),GlcA(b1-6)Gal,-0.256
same,glycan array binding signal (z-score),[31],-0.721
same,glycan array binding signal (z-score),[32],-0.724

# Exported with tabs: part of the list above.
binder	measurement	setting	value
B1	glycan array binding signal (z-score)	[9]	-0.187
same	glycan array binding signal (z-score)	[10]	0.169
same	glycan array binding signal (z-score)	[11]	-0.247
same	glycan array binding signal (z-score)	[12]	-0.385
